Experimental data: the RNAGym collection of RNA variant scans (doi:10.1126/science.aae0568)
Variants at the background level are over-represented here.

B1: tRNA (parent)
chain: GUUCCGUUGGCGUAAUGGUAACGCGUCUCCCUCCUAAGGAGAAGACUGCGGGUUCGAGUCCCGUACGGAACG

Variants of: B1
Assay: yeast fitness relative to wild type (ratio to wild type); higher = fitter; tRNA-Arg(CCU), competitive growth, 37 C, YPD
Summary of the method: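 Amplicons of the tRNA-Arg(CCU) gene were sequenced, 100-nucleotide paired-end, from the start population and from each end population of a pooled yeast competition. The competition, in six parallel replicates, lasted 24 hours in YPD at 37°C. Fitness relative to wild type was calculated from changes in genotype frequencies. Genotypes had to have ≥ 100 starting reads, and estimates < 0.5 were set to 0.5.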

Variant | yeast fitness
A20G U32A A42C G67C | ≤ 0.5
A20G U32G A43C A45U C61U A70G | ≤ 0.5
A20G U35A A36U C61U | ≤ 0.5
A20G U47A U53A | ≤ 0.5
A20U A37U A57U C62U | ≤ 0.5
A20U C22A U35G A43G A70U | ≤ 0.5
A20U C22U U32A C66U | ≤ 0.5
A20U C24G C34G G58A | ≤ 0.5
A20U C31U A45G | ≤ 0.5
A20U C33G C60G A70G | ≤ 0.5
A20U G25A U28C G44A C46U G48A C60G C62A C66G | ≤ 0.5
A20U G38C G50C A65C | ≤ 0.5
A20U G39C C49U C55G | ≤ 0.5
A20U G41C C49U G56C | ≤ 0.5
A20U U26C C33G | ≤ 0.5
A21C A36G C66A | ≤ 0.5
A21C A42U G56C | ≤ 0.5
A21C A43U G44A | ≤ 0.5
A21C A57G C66U | ≤ 0.5
A21C C22A U26C U35C C55G C62G | ≤ 0.5
A21C C27G C29A | ≤ 0.5
A21C C33U U35C | ≤ 0.5
A21G A36G A40C A42C | ≤ 0.5
A21G A37G A42C C46G | ≤ 0.5

Variant | yeast fitness
A21G A40G C55A G68A | ≤ 0.5
A21G C29U G38A G63A | ≤ 0.5
A21G C30A A36U U53G | ≤ 0.5
A21G C30G U64C | ≤ 0.5
A21G C49A U54C A65G | ≤ 0.5
A21G C49U U59G | 0.619
A21G C55U G63A G67C | ≤ 0.5
A21G C60G A70C | 0.579
A21G G25C C27G A42C G63C A65U | ≤ 0.5
A21G G68C | 0.949
A21G U28A A70U | ≤ 0.5
A21G U35G U59A | ≤ 0.5
A21G U47C C49U C62A | ≤ 0.5
A21G U54G C55U | ≤ 0.5
A21G U59A C61G | ≤ 0.5
A21G U59C | 0.883
A21U A37G A70C | ≤ 0.5
A21U A43G U47A C49A | ≤ 0.5
A21U C24G C27U C30U A36U G39A | ≤ 0.5
A21U C30G A45G | ≤ 0.5
A21U C30U A42G C55U | ≤ 0.5
A21U G23A A45C | ≤ 0.5
A21U G25A G56A A65G C66A G68C | ≤ 0.5
A21U G51A G52A | ≤ 0.5

Variant | yeast fitness
A21U U32C A36G A37U G67A | ≤ 0.5
A21U U32C C49U A57C | 0.595
A21U U32G G48C C49U | ≤ 0.5
A21U U35A A43G G56C C61U | ≤ 0.5
C22A C24G A36G G39C G51A C55U C66U | ≤ 0.5
C22A C24G C34G A43U | ≤ 0.5
C22A C27U A43G C46G A69C | ≤ 0.5
C22A C49U G51C | ≤ 0.5
C22A G23C C49G | ≤ 0.5
C22A G25A C27U G67U A69C | ≤ 0.5
C22A U26A C29U A40C A42C | ≤ 0.5
C22A U26A G52C G67A | ≤ 0.5
C22A U28C G58C | ≤ 0.5
C22G A40C | 0.68
C22G A45U G48C | 0.511
C22G A57C C62U | ≤ 0.5
C22G C27G C33U G41A G50A | ≤ 0.5
C22G C27G C49U | ≤ 0.5
C22G C27G C60U C61A C62G | ≤ 0.5
C22G C29G G41C | ≤ 0.5
C22G C46G | 0.974
C22G C55A C62U A65C | ≤ 0.5
C22G G23A U35A A57G C62A | ≤ 0.5
C22G G44C A70C | 0.553

Variant | yeast fitness
C22G G51A G67A | ≤ 0.5
C22G U47C A70U | 0.722
C22U A36C C60G | ≤ 0.5
C22U A40G A43U C46G C49G C62U | 0.531
C22U A65G A70G | ≤ 0.5
C22U C24U G38C | ≤ 0.5
C22U C31G G67C | 0.653
C22U C33A U53C | ≤ 0.5
C22U C34A A42U G44C C61A | ≤ 0.5
C22U C34U G44C | ≤ 0.5
C22U G25A C61G | ≤ 0.5
C22U G25C U28C A36G G51A G67A | ≤ 0.5
C22U U28G U32A U54A | ≤ 0.5
G23A A36U C49A | ≤ 0.5
G23A A40G A45C | ≤ 0.5
G23A A42G C61U A65G | ≤ 0.5
G23A A45C U54C | ≤ 0.5
G23A A57G G58A C62U A70U | ≤ 0.5
G23A C24U C33G U35G C60U C62G | ≤ 0.5
G23A C29G U32C A45U C60G C61U A69G | ≤ 0.5
G23A C30A U64A | ≤ 0.5
G23A C30U C33A G41C A42U A45G A70G | ≤ 0.5
G23A C33G A37G | ≤ 0.5
G23A C33G U35G C60U C62G | ≤ 0.5

Variant | yeast fitness
G23A C46U A65C | 0.54
G23A G39C A70G | ≤ 0.5
G23C A45U A65C | ≤ 0.5
G23C C27A A57U A69U | ≤ 0.5
G23C C27G C61U | ≤ 0.5
G23C C29G A43U G50A A70G | ≤ 0.5
G23C C29U C31G | ≤ 0.5
G23C C31A G52A C62A | ≤ 0.5
G23C C31G C33U A42G G52C G58C | ≤ 0.5
G23C C46A G52A G56A C62U | ≤ 0.5
G23C G58A A69C | ≤ 0.5
G23C U28A C55U A65G | ≤ 0.5
G23C U32A C60G | ≤ 0.5
C24A A36C A37C C46U | ≤ 0.5
C24A A36U U59C C66U A70C | ≤ 0.5
C24A C27G C61A C66G | ≤ 0.5
C24A G41A C60G A65G | ≤ 0.5
C24A G44C C49A A69C | ≤ 0.5
C24A U26A C31A C55A U64C | ≤ 0.5
C24A U35G C55U | ≤ 0.5
C24G A37G C55U | ≤ 0.5
C24G A42U | 0.559
C24G A45C C60A G68U | ≤ 0.5
C24G A45U A57U | ≤ 0.5

Variant | yeast fitness
C24G C27G C61U | ≤ 0.5
C24G C30U G38C A65C | ≤ 0.5
C24G C31G C61G A69C | ≤ 0.5
C24G C31G U47A | ≤ 0.5
C24G C33G A36C A37C A42C | 0.505
C24G C49U C60U C61A | ≤ 0.5
C24G C49U G51A C61A | ≤ 0.5
C24G C55U | ≤ 0.5
C24G C61A | ≤ 0.5
C24G G25C A40C A42U U47A C61G C66G | 0.509
C24G G25C C34G | ≤ 0.5
C24G G52C C60G | ≤ 0.5
C24G G63A A65G G67A | ≤ 0.5
C24G U26A C33U | ≤ 0.5
C24G U32G A36G C60A A65U | ≤ 0.5
C24G U35C C49U | ≤ 0.5
C24G U54G A70G | ≤ 0.5
C24U A36U C49G | 0.544
C24U A57G C61U C62G A65G C66A | ≤ 0.5
C24U C27U A57C | ≤ 0.5
C24U C29A A65C | ≤ 0.5
C24U C30A A37G G63A A69U | ≤ 0.5
C24U C30U G68C | ≤ 0.5
C24U C33G C34U A57U | 0.583

Variant | yeast fitness
C24U C34G U59C | ≤ 0.5
C24U C34U C46A U54C | ≤ 0.5
C24U C34U C46U C62A | ≤ 0.5
C24U C49A U64C | 1.04
C24U G51C U54A A69U | ≤ 0.5
C24U U26A G63C | ≤ 0.5
C24U U59A | 0.875
G25A A36U A45C U54A | ≤ 0.5
G25A A37G A45C C66U G67C | ≤ 0.5
G25A C27A U35C A57C | ≤ 0.5
G25A C27U A36U G63C | ≤ 0.5
G25A C29G U35C A45C C46G | ≤ 0.5
G25A C29U G51C A70U | ≤ 0.5
G25A C66G | 0.962
G25A G41A G51C C60U | ≤ 0.5
G25A G48A C61A | ≤ 0.5
G25A G52U | 0.627
G25A G56A A69C | 0.773
G25A U32A U53A | ≤ 0.5
G25C A37G A57C | ≤ 0.5
G25C A40C G68C | 0.645
G25C C27A C30G A70U | ≤ 0.5
G25C C27G G58A U64A A65U | ≤ 0.5
